Out of some 330,000 compounds screened, about 20 (0.006%) were called active. This list was built around the results that the source calls inconclusive (neither active nor inactive); the mix of calls is not that of the screen. Calls follow the shape of the dose curve; as a rule, active = well fitted inhibition curve with a large enough effect; inconclusive = small, poorly fitted or top-dose-only effect, or effect the other way; inactive = flat fitted curve, though single readings scatter. Where the call is inconclusive, the potency comes from a doubtful curve fit.
The compounds below were run against Protein phosphatase EYA2 (Homo sapiens) (UniProt O00167) (assay: qHTS Assay for Inhibitors of the Phosphatase Activity of Eya2). Conditions: recombinant Eya2, OMFP fluorescence dephosphorylation (OMFP is methylfluorescein phosphate).
In short: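 Eya2 protein (added as 0.2 uM solution) was preincubated with compound for 10 min at ambient temperature in 50 mM HEPES pH 7.5, 50 mM NaCl, 5 uM MgCl2, 0.05% BSA, 1 mM DTT. OMFP (added at 50 uM) then reacted 10 min; fluorescence read at 485/525 nm.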
Potency is read from the fitted curve at half-maximal effect.

Sequences of proteins named here, by UniProt entry; tags and fusion partners are left off. A change or cut given only in a name is not applied to a line headed by its entry.
UniProt O00167: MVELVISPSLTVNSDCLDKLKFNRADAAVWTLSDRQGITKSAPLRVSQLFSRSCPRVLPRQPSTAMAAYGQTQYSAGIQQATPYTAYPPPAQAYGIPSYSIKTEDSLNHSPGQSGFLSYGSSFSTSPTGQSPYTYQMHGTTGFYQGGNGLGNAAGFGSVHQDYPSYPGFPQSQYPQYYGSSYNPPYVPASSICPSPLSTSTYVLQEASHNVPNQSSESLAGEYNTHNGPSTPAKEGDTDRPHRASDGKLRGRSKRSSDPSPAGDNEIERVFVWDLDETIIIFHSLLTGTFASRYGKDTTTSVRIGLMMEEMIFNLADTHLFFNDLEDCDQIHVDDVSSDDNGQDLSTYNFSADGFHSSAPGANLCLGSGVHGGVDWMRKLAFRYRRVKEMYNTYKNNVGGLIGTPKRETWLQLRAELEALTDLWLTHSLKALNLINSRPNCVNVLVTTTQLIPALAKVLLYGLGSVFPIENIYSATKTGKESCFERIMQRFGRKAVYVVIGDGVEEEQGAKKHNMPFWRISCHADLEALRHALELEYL

Row | SMILES | Potency
1 | CCN(CC)c1ccc(/C=C2\C(=O)c3ccc(C(=O)O)cc3C2=O)cc1 | inconclusive: 31.6 µM [activator, partial curve]
2 | CN(C)S(=O)(=O)c1cccc(NC(=O)CN(CCO)CC(=O)Nc2cccc(S(=O)(=O)N(C)C)c2)c1 | inconclusive: 158 µM [inhibitor, partial curve, poor fit]
3 | O=C(c1cccc(NS(=O)(=O)c2ccc(F)c(F)c2)c1)N1CCN(C(c2ccccc2)c2ccccc2)CC1 | inactive
4 | CCOC(=O)c1c(-c2ccccc2)csc1NC(=O)c1nn(CC)cc1Br | inactive
5 | CCOC(=O)/C(=C\C=C1/Sc2cc(OCC)c(OCC)cc2N1CC)C(C)=O | inconclusive: 31.6 µM [activator, partial curve]
6 | Cn1cc(Br)c(-c2cccc(N3C(=O)CCCC3=O)c2)n1 | inconclusive: 100 µM [inhibitor, single point]
7 | Cc1[nH]c2c(ccc3cccnc32)c1C | inconclusive: 100 µM [inhibitor, single point]
8 | CC1Oc2ccccc2C=C1/C=N\NC(=O)c1cccnc1 (centres undefined) | inconclusive: 141 µM [inhibitor, partial curve]
9 | O=S(=O)(NC1CCN(Cc2ccccc2)CC1)c1ccc(Cl)cc1 | inconclusive: 447 µM [inhibitor, partial curve, poor fit]
10 | CS(=O)(=O)NN1C(=O)c2ccccc2NC1c1cccc(O)c1 (centres undefined) | inconclusive: 100 µM [inhibitor, single point]
11 | C/C(=C\C(=O)c1cccnc1)Nc1ccc(C(=O)O)cc1 | inconclusive: 63.1 µM [inhibitor, single point]
12 | Cc1ccc(NS(=O)(=O)c2c(C)[nH]c(C)c2C(=O)N2CCCCC2)c(C)c1 | inconclusive: 25.1 µM [inhibitor, single point]
13 | Cc1cccc2sc(N(CCCN(C)C)C(=O)c3ccco3)nc12 | inconclusive: 100 µM [inhibitor, single point]
14 | CN1CCC(=NNC(=O)c2ccco2)CC1 | inconclusive: 158 µM [inhibitor, single point]
15 | O=c1[nH][nH]c(=S)n1-c1ccccc1C(F)(F)F | inactive
16 | CCCSc1nnc(Sc2nnnn2-c2ccccc2)s1 | inactive
17 | O=C(O)/C=C/C(=O)Nc1nccs1 | inconclusive: 100 µM [inhibitor, single point]
18 | COc1cc(/C=N/NC(=O)CCN2CCN(Cc3ccccc3)CC2)cc(OC)c1OC | inactive
19 | Nc1ccc(-c2cc3ccccc3oc2=O)cc1 | inactive
20 | Cc1c(C(=O)Nc2ccc3c(c2)OCCO3)cnn1C | inconclusive: 15.8 µM [inhibitor, single point]
21 | O=[N+]([O-])c1ccc2nc(-c3ccccc3[N+](=O)[O-])[nH]c2c1 | inactive
22 | CCOC(=O)N1CCN(CC(=O)Nc2nc3ccc(OC)cc3s2)CC1 | inconclusive: 25.1 µM [inhibitor, single point]

Quoted at random: two records from the list, in no set order.
Row | SMILES | Potency
6 | Cn1cc(Br)c(-c2cccc(N3C(=O)CCCC3=O)c2)n1 | inconclusive: 100 µM [inhibitor, single point]
12 | Cc1ccc(NS(=O)(=O)c2c(C)[nH]c(C)c2C(=O)N2CCCCC2)c(C)c1 | inconclusive: 25.1 µM [inhibitor, single point]

(list continues)

Row | SMILES | Potency
23 | CCOCCCn1c(=O)c2ccccc2n2c(=S)[nH]nc12 | inactive
24 | Cn1nccc1C(=O)N1CCCC(C(=O)c2ccc(Oc3ccccc3)cc2)C1 (centres undefined) | inconclusive: 112 µM [inhibitor, partial curve]
25 | CC/C(C)=N\Nc1nc(-c2cc3cc(OC)ccc3oc2=O)cs1 | inconclusive: 89.1 µM [inhibitor, single point]
26 | CC(Cc1ccccc1)NC(=O)CC(c1ccccc1)c1ccccc1O (centres undefined) | inconclusive: 178 µM [inhibitor, single point]
27 | Nc1c(C(=O)NCc2ccc3c(c2)OCO3)c2nc3ccccc3nc2n1CCCN1CCOCC1 | inconclusive: 112 µM [inhibitor, single point]
28 | O=c1c2[nH]c3ccc(F)cc3c2ncn1CC1CCCO1 (centres undefined) | inconclusive: 100 µM [inhibitor, single point]
29 | CNc1nc2c(-c3ccc(Cl)cc3)nnn2c2ccccc12 | inconclusive: 28.2 µM [inhibitor, single point]
30 | COCCOC(=O)c1cc(C(=O)c2cc(F)ccc2O)coc1=N | inactive
31 | N#C/C(=C\c1c[nH]c2ccccc12)C(N)=O | inconclusive: 100 µM [inhibitor, single point]
32 | CC/C(=N\NC(=O)c1nnn(-c2nonc2N)c1-c1ccc2c(c1)OCO2)c1ccccc1 | inconclusive: 100 µM [inhibitor, single point]
33 | Cc1ccc(S(=O)(=O)NCc2ccc3c(c2)OCO3)cc1C | inactive
34 | C/C(=N\N(c1ccccc1)c1ccccc1)c1ccc(O)cc1 | inconclusive: 112 µM [inhibitor, single point]
35 | COc1ccc(CNC(=O)c2csc(Cc3ccc(Cl)cc3)n2)cc1 | inconclusive: 22.4 µM [inhibitor, single point]
36 | O=C(O)c1ccc(/C=C2\SC(=S)N(NC(=O)c3ccccc3[N+](=O)[O-])C2=O)cc1 | inconclusive: 100 µM [inhibitor, single point]
37 | CC(C)(O)CC[C@@H](O)[C@](C)(O)[C@H]1CC[C@@]2(O)C3=CC(=O)[C@@H]4C[C@@H](O)[C@@H](O)C[C@]4(C)[C@H]3CC[C@]12C | inconclusive: 17.8 µM [inhibitor, partial curve, poor fit]
38 | S=C(Nc1ccccc1)N(CCN1CCOCC1)Cc1cccc(Cl)c1 | inactive
39 | CC(O)(CS(=O)(=O)Cc1ccccc1Cl)C(=O)Nc1cccc(C(F)(F)F)c1 (centres undefined) | inconclusive: 22.4 µM [inhibitor, single point]
40 | CCN(CC(=O)Nc1c(F)cccc1F)C(=O)CCNC(=O)c1ccco1 | inconclusive: 70.8 µM [inhibitor, partial curve]
41 | O=C1[C@@H]2Cc3c([nH]c4ccccc34)C(c3ccccc3)N2C(=O)CN1C1CC1 (some centres undefined) | inactive
42 | Cc1cc(C)nc(SCc2ccc(C(=O)NN=C3CCCC3)cc2)n1 | inconclusive: 2240 µM [inhibitor, partial curve, poor fit]
43 | CN1CCSc2ccc(C(=O)NCc3cccc(F)c3)cc21 | inconclusive: 89.1 µM [inhibitor, single point]
44 | CCOC(=O)C1=C(O)/C(=C/c2ccc(OCC(=O)O)c(OCC)c2)SC1=Nc1ccc(OC)cc1 | inactive

Source: PubChem BioAssay AID488837 (National Center for Advancing Translational Sciences (NCATS), 2010)
